{"source": "patent US20160074480A1", "about": "“INNOVATIVE METHODS OF TREATMENTING TUBERCULOSIS” (priority 2015, published 2016)", "origin": "cited, not measured here", "test_system": "tuberculosis bacteria", "settings": "treated for 3 days, versus untreated sample; cited from earlier work", "note": "For at least one compound, name, drawing or mass did not settle the structure.", "data": [{"smiles": "CO[C@H]1/C=C/O[C@@]2(C)Oc3c(C)c(O)c4c(O)c(c(/C=N/N5CCN(C)CC5)c(O)c4c3C2=O)NC(=O)/C(C)=C\\C=C\\[C@H](C)[C@H](O)[C@@H](C)[C@@H](O)[C@@H](C)[C@H](OC(C)=O)[C@@H]1C", "note": "[Rifampin, Rifampicin]", "values": [{"measurement": "intracellular levels of ferrous ions", "value": "up to ten times higher"}]}]}
